Test [1] addresses GhJAZ11-D (Gossypium hirsutum (upland cotton)). Briefly: two-hybrid; GhMYC2/3, GhNINJA, GhMYB2, GhMYB23, GhMYB25, GhMYB25-like or GhDEL65 in pGADT7, GhJAZ in pGBKT7; yeast mating; growth on QDO (SD-Trp/-Leu/-Ade/-His) medium.
Test [2] addresses GhJAZ7-A (Gossypium hirsutum (upland cotton)). The description is as above.
Test [3] deals with GhJAZ5-A (Gossypium hirsutum (upland cotton)). The test is described as above.
Test [4] deals with GhJAZ3-D (Gossypium hirsutum (upland cotton)). The description is as above.
Test [5] has as its target GhJAZ13-D (Gossypium hirsutum (upland cotton)). Described as above.
Test [6] addresses GhJAZ10-A (Gossypium hirsutum (upland cotton)). Described as above.
In test [7] the target is GhJAZ2-A (Gossypium hirsutum (upland cotton)). The description is as above.
The target of test [8] is GhJAZ1-D (Gossypium hirsutum (upland cotton)). Described as above.
Test [9] has as its target GhJAZ12-D (Gossypium hirsutum (upland cotton)). Described as above.
The target of test [10] is cYFP-GhJAZ3-D (Gossypium hirsutum (upland cotton)). In words: split reporter; BiFC: cYFP-GhJAZ and nYFP fusions coexpressed for 48 hours in Nicotiana benthamiana leaves by Agrobacterium (GV3101) coinfiltration; YFP fluorescence by confocal microscopy.

No constants are given. Whether binding was seen depends on the method and setting. For some of these results: A result given as binding can be weak or reduced; the word gives no strength. For some of these results: Binding seen in cells or lysates may run through a third protein. For some of these results: Where a sequence is shown, tags or fusion partners need not be part of it.

B1: GhDEL65 (protein, UniProt Q9ATD7 1-620)
chain: MSTGVQHQERVPMNLKKQLALAVRNIQWSYAIFWSISTRQPGVLEWGEGYYNGDIKTRKTVQSVELNTDQLSLQRSEQLRQLYESLSAGESSPQAKRPSAALSPEDLTDTEWYYLVCMSFVFNIGQGLPGRTLSSGQPVWLCNAHCADSKVFGRSLLAKSASIQTAVCFPFSGGVVELGVTDLVFEDLSLIQRVKTLLLDDPQPIVSKRSIQVDGMNNDLACPALDPLILATKLSPILGCEQLETVSPDDSPDGLEPKQSREDSLLIEGINGGASQVQSWQFMDEEFSNCVHHSLNSSDCISQTIADHRKVVPLCRGENDNGLQDVEECNQTKLTSFDRQNDDRHFHEVLSALFKSSHPLILGPQFRNSNKESSFIRWQKNGLKPQKERDETPQKLLKKILFLVPHMHDRGLIESPETNAVRDAAWRPEADEICGNHVLSERKRREKINERLMMLKSLVPANNKADKVSILDVTIEYLQTLERRVAELESCRKSEARTKIERTSDNNGKKSSLSKRKAYDVVDEADQEIGYVASKDGSTDKVTLSMNNKELLIEFKCPWREGILLEVMDALSILNLDCHSVQSSTTEGILSLTIKSKYKGSSVAKAGPIEQALQRIASKC
B1: the binding entry in test [1] is listed as “no binding”; in [2] it was “no binding”; in test [3], “no binding”; in [4] it was “binds”; in [5], “no binding”; in [6] it was “no binding”. Also, the binding result in test [7], in test [8] and in [9] was “no binding” each time.

B2: nYFP-GhDEL65 (protein, UniProt Q9ATD7 1-620)
chain: MSTGVQHQERVPMNLKKQLALAVRNIQWSYAIFWSISTRQPGVLEWGEGYYNGDIKTRKTVQSVELNTDQLSLQRSEQLRQLYESLSAGESSPQAKRPSAALSPEDLTDTEWYYLVCMSFVFNIGQGLPGRTLSSGQPVWLCNAHCADSKVFGRSLLAKSASIQTAVCFPFSGGVVELGVTDLVFEDLSLIQRVKTLLLDDPQPIVSKRSIQVDGMNNDLACPALDPLILATKLSPILGCEQLETVSPDDSPDGLEPKQSREDSLLIEGINGGASQVQSWQFMDEEFSNCVHHSLNSSDCISQTIADHRKVVPLCRGENDNGLQDVEECNQTKLTSFDRQNDDRHFHEVLSALFKSSHPLILGPQFRNSNKESSFIRWQKNGLKPQKERDETPQKLLKKILFLVPHMHDRGLIESPETNAVRDAAWRPEADEICGNHVLSERKRREKINERLMMLKSLVPANNKADKVSILDVTIEYLQTLERRVAELESCRKSEARTKIERTSDNNGKKSSLSKRKAYDVVDEADQEIGYVASKDGSTDKVTLSMNNKELLIEFKCPWREGILLEVMDALSILNLDCHSVQSSTTEGILSLTIKSKYKGSSVAKAGPIEQALQRIASKC
B2: the binding entry in test [10] is “no binding”.
